Assay results: the supplement of paper PMC11006884
The targets with a hit were mostly taken out for another list; the other results follow. This is a noisy data set. The list shows a part of the results, in another mix than the full data.

Sequences of proteins named here, by UniProt entry; tags and fusion partners are left off. A change or cut given only in a name is not applied to a line headed by its entry.
UniProt Q92597: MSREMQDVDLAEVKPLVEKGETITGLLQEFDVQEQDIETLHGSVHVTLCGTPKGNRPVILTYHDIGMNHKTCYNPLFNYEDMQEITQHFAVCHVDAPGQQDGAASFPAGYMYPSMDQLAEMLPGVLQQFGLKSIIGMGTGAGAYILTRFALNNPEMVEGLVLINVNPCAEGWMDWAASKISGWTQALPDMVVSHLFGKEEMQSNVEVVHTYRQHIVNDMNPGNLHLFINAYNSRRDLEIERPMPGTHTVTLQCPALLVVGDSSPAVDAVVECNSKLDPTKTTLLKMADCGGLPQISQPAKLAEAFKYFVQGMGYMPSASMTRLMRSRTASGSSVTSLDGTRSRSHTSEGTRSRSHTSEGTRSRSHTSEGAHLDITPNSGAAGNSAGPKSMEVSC
UniProt Q96F86: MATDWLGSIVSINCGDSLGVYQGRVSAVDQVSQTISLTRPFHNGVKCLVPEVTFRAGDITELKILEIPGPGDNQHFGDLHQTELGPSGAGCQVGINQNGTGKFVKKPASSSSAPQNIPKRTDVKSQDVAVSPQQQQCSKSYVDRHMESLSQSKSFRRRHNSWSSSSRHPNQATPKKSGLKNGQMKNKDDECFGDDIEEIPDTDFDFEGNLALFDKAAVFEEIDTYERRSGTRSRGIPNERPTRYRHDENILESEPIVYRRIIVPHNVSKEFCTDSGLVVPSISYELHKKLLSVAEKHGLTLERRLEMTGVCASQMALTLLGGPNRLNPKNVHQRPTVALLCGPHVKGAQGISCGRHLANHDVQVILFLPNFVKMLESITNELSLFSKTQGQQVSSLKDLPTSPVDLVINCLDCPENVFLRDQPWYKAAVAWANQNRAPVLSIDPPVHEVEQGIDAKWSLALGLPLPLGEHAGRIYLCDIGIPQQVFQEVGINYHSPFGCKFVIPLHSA
UniProt Q96AY4: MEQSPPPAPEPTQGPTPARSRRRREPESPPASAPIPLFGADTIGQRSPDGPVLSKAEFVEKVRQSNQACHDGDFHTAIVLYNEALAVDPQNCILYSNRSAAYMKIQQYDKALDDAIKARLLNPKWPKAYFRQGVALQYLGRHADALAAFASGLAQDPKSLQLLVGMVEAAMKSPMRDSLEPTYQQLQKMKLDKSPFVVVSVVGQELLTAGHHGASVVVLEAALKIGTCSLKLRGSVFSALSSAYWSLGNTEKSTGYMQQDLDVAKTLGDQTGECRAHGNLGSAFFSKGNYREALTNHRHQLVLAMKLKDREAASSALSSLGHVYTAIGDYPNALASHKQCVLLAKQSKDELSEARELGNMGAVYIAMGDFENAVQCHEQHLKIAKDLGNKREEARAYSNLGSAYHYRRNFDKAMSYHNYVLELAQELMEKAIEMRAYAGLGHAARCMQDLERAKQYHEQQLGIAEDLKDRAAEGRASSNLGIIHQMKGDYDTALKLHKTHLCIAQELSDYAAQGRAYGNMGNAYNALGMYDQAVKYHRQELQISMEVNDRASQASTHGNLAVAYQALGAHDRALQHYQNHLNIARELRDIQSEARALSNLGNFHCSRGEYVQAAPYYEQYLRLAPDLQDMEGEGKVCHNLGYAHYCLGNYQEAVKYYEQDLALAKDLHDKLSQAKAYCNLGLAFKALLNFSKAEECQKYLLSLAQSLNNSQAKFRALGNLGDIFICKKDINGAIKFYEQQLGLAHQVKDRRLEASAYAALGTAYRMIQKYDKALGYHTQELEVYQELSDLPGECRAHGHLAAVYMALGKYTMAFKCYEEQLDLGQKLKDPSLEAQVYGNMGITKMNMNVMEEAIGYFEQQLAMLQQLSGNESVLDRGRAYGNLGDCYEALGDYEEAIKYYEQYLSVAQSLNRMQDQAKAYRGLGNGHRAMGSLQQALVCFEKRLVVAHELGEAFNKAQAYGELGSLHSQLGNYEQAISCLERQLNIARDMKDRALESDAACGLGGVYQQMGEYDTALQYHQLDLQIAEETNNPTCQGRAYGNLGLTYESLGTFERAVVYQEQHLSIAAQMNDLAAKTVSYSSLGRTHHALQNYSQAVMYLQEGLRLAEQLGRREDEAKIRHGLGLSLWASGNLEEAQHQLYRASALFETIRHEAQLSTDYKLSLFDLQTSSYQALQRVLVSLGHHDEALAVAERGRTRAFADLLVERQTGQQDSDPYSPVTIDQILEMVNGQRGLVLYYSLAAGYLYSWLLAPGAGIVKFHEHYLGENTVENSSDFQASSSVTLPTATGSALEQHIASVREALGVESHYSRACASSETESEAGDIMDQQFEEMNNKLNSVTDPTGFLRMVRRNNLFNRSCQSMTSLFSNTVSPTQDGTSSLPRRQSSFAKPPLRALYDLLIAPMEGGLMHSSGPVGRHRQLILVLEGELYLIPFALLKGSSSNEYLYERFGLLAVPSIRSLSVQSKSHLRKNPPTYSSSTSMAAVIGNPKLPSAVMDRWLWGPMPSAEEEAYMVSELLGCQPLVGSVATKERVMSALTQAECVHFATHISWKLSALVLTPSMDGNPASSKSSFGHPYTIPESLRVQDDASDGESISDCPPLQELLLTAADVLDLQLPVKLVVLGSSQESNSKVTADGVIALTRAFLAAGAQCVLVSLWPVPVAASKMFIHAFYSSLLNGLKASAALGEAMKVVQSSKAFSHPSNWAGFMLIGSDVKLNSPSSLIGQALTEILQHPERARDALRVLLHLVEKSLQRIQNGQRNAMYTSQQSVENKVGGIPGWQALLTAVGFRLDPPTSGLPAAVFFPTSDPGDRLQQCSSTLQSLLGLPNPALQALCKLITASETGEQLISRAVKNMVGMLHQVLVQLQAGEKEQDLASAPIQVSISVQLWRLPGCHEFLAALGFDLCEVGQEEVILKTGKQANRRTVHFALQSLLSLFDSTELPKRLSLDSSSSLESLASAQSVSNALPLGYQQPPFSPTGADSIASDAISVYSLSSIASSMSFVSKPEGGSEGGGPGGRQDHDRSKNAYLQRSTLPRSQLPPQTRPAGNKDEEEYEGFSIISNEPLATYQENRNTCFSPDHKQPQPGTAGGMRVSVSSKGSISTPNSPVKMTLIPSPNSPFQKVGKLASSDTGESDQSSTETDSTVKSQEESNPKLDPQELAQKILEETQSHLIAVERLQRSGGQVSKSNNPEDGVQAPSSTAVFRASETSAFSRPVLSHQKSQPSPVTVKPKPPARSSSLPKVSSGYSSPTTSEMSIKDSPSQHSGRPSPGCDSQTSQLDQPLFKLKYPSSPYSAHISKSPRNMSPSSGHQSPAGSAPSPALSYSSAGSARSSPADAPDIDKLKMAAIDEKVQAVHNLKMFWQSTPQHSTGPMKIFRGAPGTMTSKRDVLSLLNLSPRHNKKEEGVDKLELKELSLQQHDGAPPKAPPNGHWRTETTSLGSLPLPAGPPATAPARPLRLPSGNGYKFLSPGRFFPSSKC
UniProt Q96B54: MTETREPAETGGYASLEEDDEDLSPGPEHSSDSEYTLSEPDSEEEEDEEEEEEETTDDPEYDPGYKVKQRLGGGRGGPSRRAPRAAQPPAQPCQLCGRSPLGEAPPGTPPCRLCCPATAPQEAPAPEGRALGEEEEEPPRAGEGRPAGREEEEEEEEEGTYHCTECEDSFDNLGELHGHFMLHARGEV
UniProt Q96E11: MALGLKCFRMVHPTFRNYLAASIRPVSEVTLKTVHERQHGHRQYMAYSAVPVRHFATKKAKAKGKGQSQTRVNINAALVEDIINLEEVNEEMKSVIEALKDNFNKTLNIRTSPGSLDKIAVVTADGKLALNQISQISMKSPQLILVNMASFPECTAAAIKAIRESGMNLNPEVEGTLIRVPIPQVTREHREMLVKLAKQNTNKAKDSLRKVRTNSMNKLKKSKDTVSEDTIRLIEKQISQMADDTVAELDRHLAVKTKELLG
UniProt Q96EZ8, whole entry: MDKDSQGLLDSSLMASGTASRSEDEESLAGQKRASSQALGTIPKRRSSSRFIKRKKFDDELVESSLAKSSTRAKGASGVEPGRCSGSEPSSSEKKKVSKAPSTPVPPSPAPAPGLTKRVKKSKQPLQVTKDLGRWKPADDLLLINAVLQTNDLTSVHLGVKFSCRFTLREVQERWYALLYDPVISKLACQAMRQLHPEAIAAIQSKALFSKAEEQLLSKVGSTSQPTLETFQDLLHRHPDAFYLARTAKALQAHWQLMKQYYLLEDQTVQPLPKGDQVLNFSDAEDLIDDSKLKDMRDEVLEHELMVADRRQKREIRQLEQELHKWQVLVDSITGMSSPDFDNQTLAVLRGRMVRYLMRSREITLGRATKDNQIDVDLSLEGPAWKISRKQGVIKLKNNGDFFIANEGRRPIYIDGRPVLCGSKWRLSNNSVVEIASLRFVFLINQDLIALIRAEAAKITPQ
UniProt Q96DG6: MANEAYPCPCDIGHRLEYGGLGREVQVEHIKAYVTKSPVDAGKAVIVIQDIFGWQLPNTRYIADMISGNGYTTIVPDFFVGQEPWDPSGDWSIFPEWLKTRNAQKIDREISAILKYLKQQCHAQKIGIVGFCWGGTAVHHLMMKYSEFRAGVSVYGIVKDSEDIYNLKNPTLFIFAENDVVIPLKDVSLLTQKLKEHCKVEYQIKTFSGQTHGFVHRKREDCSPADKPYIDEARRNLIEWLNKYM
UniProt Q96C19: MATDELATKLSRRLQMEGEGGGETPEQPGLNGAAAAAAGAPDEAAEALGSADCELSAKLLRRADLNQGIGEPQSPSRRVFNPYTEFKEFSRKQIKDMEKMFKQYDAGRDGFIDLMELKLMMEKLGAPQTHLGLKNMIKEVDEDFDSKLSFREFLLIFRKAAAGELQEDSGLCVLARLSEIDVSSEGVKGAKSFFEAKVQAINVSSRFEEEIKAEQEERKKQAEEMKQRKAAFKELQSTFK
UniProt Q96BH1: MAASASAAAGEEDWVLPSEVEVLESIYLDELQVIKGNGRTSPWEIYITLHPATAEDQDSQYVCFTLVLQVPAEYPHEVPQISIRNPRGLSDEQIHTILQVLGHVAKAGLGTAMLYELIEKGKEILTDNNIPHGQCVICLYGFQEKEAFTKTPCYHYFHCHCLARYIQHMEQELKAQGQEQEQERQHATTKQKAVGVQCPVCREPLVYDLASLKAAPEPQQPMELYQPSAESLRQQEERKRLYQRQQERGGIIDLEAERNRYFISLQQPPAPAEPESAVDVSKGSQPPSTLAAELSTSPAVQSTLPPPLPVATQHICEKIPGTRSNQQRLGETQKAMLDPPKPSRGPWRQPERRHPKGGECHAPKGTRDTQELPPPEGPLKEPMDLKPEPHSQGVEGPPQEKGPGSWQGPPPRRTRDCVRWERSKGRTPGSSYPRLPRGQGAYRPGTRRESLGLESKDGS
UniProt Q92945: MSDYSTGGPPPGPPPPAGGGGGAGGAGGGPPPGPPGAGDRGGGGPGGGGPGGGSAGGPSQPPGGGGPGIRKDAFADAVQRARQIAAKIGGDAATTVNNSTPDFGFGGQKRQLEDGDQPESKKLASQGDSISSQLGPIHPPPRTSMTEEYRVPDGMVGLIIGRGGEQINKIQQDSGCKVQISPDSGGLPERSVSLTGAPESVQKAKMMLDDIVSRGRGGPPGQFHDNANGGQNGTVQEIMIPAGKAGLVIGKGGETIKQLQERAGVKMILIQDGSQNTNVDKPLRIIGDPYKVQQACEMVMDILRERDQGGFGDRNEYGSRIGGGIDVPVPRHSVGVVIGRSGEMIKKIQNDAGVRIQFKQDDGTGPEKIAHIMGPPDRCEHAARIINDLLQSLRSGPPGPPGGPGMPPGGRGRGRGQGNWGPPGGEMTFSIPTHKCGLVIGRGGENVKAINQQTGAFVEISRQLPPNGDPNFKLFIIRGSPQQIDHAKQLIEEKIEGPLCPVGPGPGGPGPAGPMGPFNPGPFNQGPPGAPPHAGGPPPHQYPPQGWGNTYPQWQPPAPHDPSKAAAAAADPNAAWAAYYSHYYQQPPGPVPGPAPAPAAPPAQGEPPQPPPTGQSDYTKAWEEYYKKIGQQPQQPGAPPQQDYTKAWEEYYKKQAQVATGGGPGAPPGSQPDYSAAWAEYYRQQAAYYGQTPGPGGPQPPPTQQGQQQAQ
UniProt Q93052: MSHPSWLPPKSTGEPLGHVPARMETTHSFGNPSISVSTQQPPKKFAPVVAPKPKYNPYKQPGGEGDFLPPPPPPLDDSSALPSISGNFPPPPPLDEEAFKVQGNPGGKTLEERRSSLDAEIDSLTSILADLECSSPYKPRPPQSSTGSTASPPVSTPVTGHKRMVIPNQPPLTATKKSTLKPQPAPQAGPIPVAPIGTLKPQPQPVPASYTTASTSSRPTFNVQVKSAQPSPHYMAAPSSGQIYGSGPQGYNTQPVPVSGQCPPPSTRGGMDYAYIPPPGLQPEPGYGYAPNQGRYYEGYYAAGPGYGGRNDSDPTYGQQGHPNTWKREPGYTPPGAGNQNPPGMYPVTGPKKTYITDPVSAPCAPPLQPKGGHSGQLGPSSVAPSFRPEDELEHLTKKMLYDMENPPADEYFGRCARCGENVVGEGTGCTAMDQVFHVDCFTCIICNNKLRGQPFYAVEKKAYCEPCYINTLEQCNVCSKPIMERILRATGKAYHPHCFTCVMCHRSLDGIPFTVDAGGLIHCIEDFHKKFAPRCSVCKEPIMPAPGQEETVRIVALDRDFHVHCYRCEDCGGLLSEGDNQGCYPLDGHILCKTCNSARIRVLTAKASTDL

Compound: COC(=O)/C=C/c1ccccc1 [methyl cinnamate]
Experiment: log2 ratio of iodoacetamide-alkyne labeling of the cysteine site, DMSO over compound (competition); higher = stronger covalent engagement of the cysteine by the compound, active = 1 or more
Settings: 500 µM; treatment time 1 h; system: HEK293T cell lysate
How it was run: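 Three replicates, each with duplicate channels, were prepared from HEK293T lysate (2 mg/mL) treated with vehicle or electrophile at 500 µM for 1 h at ambient temperature. Iodoacetamide alkyne was then applied for 1 h, and samples were clicked to sCIP-TMT reagents, pooled, trypsin-digested overnight at 37 °C, enriched on streptavidin, acid-eluted and analysed on Orbitrap Eclipse LC-MS/MS with FAIMS, with FragPipe quantification. The log2 competition ratio per cysteine is the mean control-channel divided by the mean compound-channel reporter intensity. Cysteines quantified in only one replicate were left out.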

log2 ratio of iodoacetamide-alkyne labeling, inactive:
NDRG1 C272 (UniProt Q92597) -0.0355, HSPH1 C658 (UniProt Q92598) 0.0648, EDC3 C413 (UniProt Q96F86) -0.236, TTC28 C502 (UniProt Q96AY4) 0.108, ZNF428 C114 (UniProt Q96B54) 0.128, PHF3 C627 (UniProt Q92576) 0.234, USP9X C864 (UniProt Q93008) 0.217, DHX38 C27 (UniProt Q92620) 0.345, UniProt Q96GD4_C234 0.26, MRRF C154 (UniProt Q96E11) -0.0202, MCRS1 C84 (UniProt Q96EZ8) 0.389, SMARCC1 C511 (UniProt Q92922) -0.0117, CMBL C8 (UniProt Q96DG6) -0.0212, NRBF2 C155 (UniProt Q96F24) 0.0953, UniProt Q93015_C250 0.0124, EFHD2 C53 (UniProt Q96C19) 0.374, RNF25 C360 (UniProt Q96BH1) 0.616, KHSRP C436 (UniProt Q92945) 0.148, SMARCC1 C462 (UniProt Q92922) 0.286, RNF34 C65 (UniProt Q969K3) 0.549, LRRC59 C131 (UniProt Q96AG4) 0.221, LPP C468 (UniProt Q93052) 0.0367
